Experimental data as given in US12508300B2, “Acylated GLP-1 derivative” (Sciwind Biosciences Co., Ltd., priority 2019, dated 2025).
Where two headings read alike, the source gives them in different places. For at least one compound, name, drawing or mass did not settle the structure. Some of these results come from one statement about several compounds together. *1 amine or outer side, *2 acyl side, *3 side chain or, on linkers, in order; H or OH if unused. Where a SMILES comes first, the peptide text is derived from it. Side-chain parts run from the residue outwards. The star is where a group is joined. C18 diacid = O=C(O)CCCCCCCCCCCCCCCCC(=O)*; γGlu = O=C(O)[C@H](CCC(=O)[*:2])N[*:1]; AEEA = NCCOCCOCC(=O)O

Amino acid sequences for entries named in this document (tags omitted). Residues count along the entry.
UniProt P43220, 24-463, species assumed: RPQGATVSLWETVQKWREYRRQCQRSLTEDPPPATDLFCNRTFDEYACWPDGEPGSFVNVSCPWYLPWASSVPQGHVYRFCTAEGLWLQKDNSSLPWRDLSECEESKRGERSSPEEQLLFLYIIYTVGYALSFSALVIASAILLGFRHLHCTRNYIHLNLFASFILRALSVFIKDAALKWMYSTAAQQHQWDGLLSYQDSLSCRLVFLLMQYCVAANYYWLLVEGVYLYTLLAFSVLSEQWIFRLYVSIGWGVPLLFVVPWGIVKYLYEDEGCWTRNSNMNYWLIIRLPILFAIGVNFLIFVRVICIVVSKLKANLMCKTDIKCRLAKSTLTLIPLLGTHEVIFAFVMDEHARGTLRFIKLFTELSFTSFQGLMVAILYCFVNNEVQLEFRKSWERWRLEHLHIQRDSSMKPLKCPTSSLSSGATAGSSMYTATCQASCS

How the values were obtained:
RIN-m5F cells = assay: In vitro activity determination in RIN-m5F cells (cAMP assay kit); type: cell-based
Description: RIN-m5F cells with good culturing status are selected. Cells are then collected, counted, and prepared into a cell suspension of 1×10^5 cells/ml with RPMI1640 basal medium. The cell suspension is inoculated in a 96-well cell culture plate, 100 μl per well, then incubating overnight at 37° C. and 5% CO2.
The prepared cell plate is taken out, then discarding the medium, and blotting it dry on the filter paper. The sample solutions are transferred correspondingly into the cell plate, 40 μl/well; treating with the lid open for 15 min at 37° C. and 5% CO2. The cell culture plate is taken out from the incubator, then adding 10 μl of CD solution (cAMP assay kit, Promega) to each well, keeping the cell plate at 22-25° C., and shaking horizontally at 500 rpm for 20 min. 50 μl of KG solution (cAMP assay kit, Promega) is added to each well, then shaking horizontally at 22° C.-25° C., 500 rpm and avoiding light for 10 min. The chemiluminescence value is read by using the Molecular Devices SpectraMax L chemiluminescence apparatus, completing the measurement in 30 min. EC50 of a sample is calculated by using the four-parameter regression in softmax Pro software.

CD-1 mice = type: in vivo; settings: 0.15 mg/kg s.c.
Description: Twenty-eight healthy female CD-1 mice aged 4-6 weeks are selected and divided into 4 groups, and they are injected subcutaneously with M4, M5, M7 and M0 at a dose of 0.15 mg/kg body weight.

ICR mice = type: in vivo; set-up: G-AUC: unit not given here
Description: 20% glucose is intragastrically administered every day according to the time schedule of 4 h, 1 d, 2 d, 3 d, 4 d, and 5 d, at a dose of 2 g/kg body weight, and fasting for 6 hours before administering the glucose; and blood is respectively collected from the tip of the tail at 0 h, 0.5 h, 1 h and 2 h after giving the 20% glucose, then measuring the blood glucose value in real time by using Roche blood glucose test paper.

GLP1R = target: T1, GLP1R (Homo sapiens, UniProt P43220); assay: In vitro activity determination in HEK293/CRE-Luc/GLP1R cells (luciferase reporter); type: cell-based
T1 construct: expressed in transfected cells; host or cells: HEK293
Description: Based on the fact that GLP-1 may bind to the receptor on the cell membrane, the HEK293/CRE-Luc/GLPIR cell line is constructed, the CAMP response elements (CRE) are activated through a series of signal transduction, the expression of downstream luciferase is initiated, and the amount of its expression is positively correlated with the biological activity of GLP-1. After adding the luciferase substrate, the chemiluminescence assay is performed to determine the luminous intensity, thereby determining the biological activity of GLP-1. […]
(1) Cell preparation: the cells are cultured until they grow vigorously and reach a sufficient quantity, discarding the culture medium in the culture bottle, adding 3 ml of Versene solution and shaking once; then adding 2 ml of 0.05% TRYPSIN-EDTA digestion solution, covering the bottle and standing for 1 minute, and then adding 6 ml of the assay medium to quench the digestion; after centrifugation at 1000 r/min for 3 min, the supernatant is discarded, and the cells are resuspended in 5 ml of assay medium and counted on a hemacytometer. […]
(5) Reading: determination is performed with a chemiluminescence microplate reader SpectraMax L, then reading the plate within 30 min, and recording the determined results.

Molecule | in vitro activities (comparison in words) (RIN-m5F cells) | duration of glucose-lowing effect in normal mice (CD-1 mice; from Table 4) | glucose-lowing effects (comparison in words, Tables 4 and 5) (CD-1 mice; normal mice) | G-AUC (ICR mice; 0 h (before administration)) | time the glucose-lowing effect is maintained (ICR mice; 0.15 mg/kg s.c. single) | G-AUC (ICR mice; 0.15 mg/kg s.c. single, 4 h) | G-AUC (ICR mice; 0.15 mg/kg s.c. single, 1 d) | G-AUC (ICR mice; 0.15 mg/kg s.c. single, 2 d) | G-AUC (ICR mice; 0.15 mg/kg s.c. single, 3 d) | G-AUC (ICR mice; 0.15 mg/kg s.c. single, 4 d) | G-AUC (ICR mice; 0.15 mg/kg s.c. single, 5 d) | in vitro activities (comparison in words) (GLP1R)
CC[C@H](C)[C@H](NC(=O)[C@H](Cc1ccccc1)NC(=O)[C@H](CCC(=O)O)NC(=O)[C@H](CCCNC(=N)N)NC(=O)[C@H](C)NC(=O)[C@H](C)NC(=O)[C@H](CCCCNC(=O)COCCOCCNC(=O)COCCOCCNC(=O)CC[C@H](NC(=O)CCCCCCCCCCCCCCCCC(=O)O)C(=O)O)NC(=O)[C@H](CCC(=O)O)NC(=O)[C@H](CCC(=O)O)NC(=O)[C@H](CC(C)C)NC(=O)[C@H](Cc1ccc(O)cc1)NC(=O)[C@H](CO)NC(=O)[C@H](CO)NC(=O)[C@@H](NC(=O)[C@H](CC(=O)O)NC(=O)[C@H](CO)NC(=O)[C@@H](NC(=O)[C@H](Cc1ccccc1)NC(=O)[C@@H](NC(=O)CNC(=O)[C@H](CCC(=O)O)NC(=O)[C@@H](NC(=O)[C@@H](N)Cc1c[nH]cn1)C(C)C)[C@@H](C)O)[C@@H](C)O)C(C)C)C(=O)N[C@@H](C)C(=O)N[C@@H](Cc1c[nH]c2ccccc12)C(=O)N[C@@H](CC(C)C)C(=O)N[C@H](C(=O)N[C@@H](CCCNC(=N)N)C(=O)NCC(=O)N[C@@H](CCCNC(=N)N)C(=O)NCC(=O)O)C(C)C [M2, N-ε^23-[2-(2-[2-(2-[2-(2-[4-(17-carboxyheptadecanoylamino)-4(s)-carboxybutyrylamino]ethoxy)ethoxy]acetylamino)ethoxy]ethoxy)acetyl](Val^8Glu^22Lys^23Arg^26,34-GLP-1 (7-37)) peptide] (H-HVEGTFTSDVSSYLEEK([AEEA-AEEA-γGlu-C18 diacid])AAREFIAWLVRGRG-OH; N-terminus and C-terminus assumed) | comparable | still obvious on day 4 | better than those of M0 and Semaglutide | 17.8 ± 1.9 | at least 4 days | 11.7 ± 0.6 | 12.5 ± 0.6 | 13.0 ± 0.7 | 13.9 ± 0.6 | 16.0 ± 1.0 | 18.3 ± 0.6 | comparable
N-ε^34-[2-(2-[2-(2-[2-(2-[4-(17-carboxyheptadecanoylamino)-4(s)-carboxybutyrylamino]ethoxy)ethoxy]acetylamino)ethoxy]ethoxy)acetyl](Val^8Glu^22 Arg^26Lys^34-GLP-1(7-37)) peptide (HVEGTFTSDVSSYLEEQAAREFIAWLVKGRG) [M5] |  |  |  |  | at least 4 days |  |  |  |  |  |  | 
N-ε^37-[2-(2-[2-(2-[2-(2-[4-(17-carboxyheptadecanoylamino)-4(s)-carboxybutyrylamino]ethoxy)ethoxy]acetylamino)ethoxy]ethoxy)acetyl](Val^8Glu^22Arg^26,34Lys^37-GLP-1 (7-37)) peptide (HVEGTFTSDVSSYLEEQAAREFIAWLVRGRK) [M7] |  |  |  |  | at least 4 days |  |  |  |  |  |  | 
